This note sets out measurements from PMC12032720, “Pharmacological assessment of the extract and a novel compound of Bacillus velezensis DM derived from the rhizosphere of Datura metel L. with microbial molecular screening” (BMC Complementary Medicine and Therapies, 2025).

For assay [1], the system named is MCF-7. Description: MTT cytotoxicity on breast cancer cell line MCF-7. Conditions: Homo sapiens, MCF7, 0–100 µg/mL, mean ± SD, n = 3. Format: cell-based. Here is the method: (§1) Diverse human cancer cell lines: liver cancer cells (HepG2), colon cancer cell line (HCT-116), and breast cancer cell line (MCF-7) were brought from VACSERA Tissue Culture Unit (Giza, Egypt). RPMI-1640 media enhanced with 10% fetal bovine serum and […] gentamycin were employed to culture the cells. The cells were incubated at 37 °C with 5% CO2. […] IC50 was calculated by the Graph Pad Prism (version 8, San Diego, CA, USA) (n = 3 replicates). Data are presented as mean ± SD.

The test system of assay [2] is HepG-2. Description: MTT cytotoxicity on liver cancer cells HepG-2. The note with it: Homo sapiens, HepG2, 0–100 µg/mL, mean ± SD, n = 3. Format: cell-based. The procedure: as §1

The IC50 is the concentration at which inhibition is half-maximal. Read a high IC50 as weaker potency.

Converted amounts (≈) assume the structure as drawn.

For `COc1cccc2c1C(=O)c1c(O)c3c(c(O)c1C2=O)C[C@@](O)(C(=O)CO)C[C@@H]3O[C@H]1C[C@H](N)[C@H](O)[C@H](C)O1` [Doxorubicin (DOX), Doxorubicin], the values for the IC50 in assay [1] and in assay [2] were 11.7 ± 0.4 µg/mL (≈ 21.5 µM) and 7.21 ± 0.32 µg/mL (≈ 13.3 µM), respectively.
